Laboratory results as given in publication PMC11079024, “Identification of a family of species-selective complex I inhibitors as potential anthelmintics” (Nature Communications, 2024).

By UniProt entry, the sequences of proteins in these tests, tags left out. Where a name states a change or a piece, a line headed by the entry shows the natural chain unless it says otherwise. Residues count along the entry.
UniProt P03888: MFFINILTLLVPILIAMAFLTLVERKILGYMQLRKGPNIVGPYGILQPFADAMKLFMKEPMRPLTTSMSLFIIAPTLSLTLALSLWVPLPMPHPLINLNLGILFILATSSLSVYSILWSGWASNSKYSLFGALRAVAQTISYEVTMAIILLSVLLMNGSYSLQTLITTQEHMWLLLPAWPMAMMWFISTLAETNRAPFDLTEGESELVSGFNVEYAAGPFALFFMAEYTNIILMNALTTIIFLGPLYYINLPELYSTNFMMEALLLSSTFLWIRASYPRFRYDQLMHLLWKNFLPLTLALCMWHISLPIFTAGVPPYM
UniProt Q91WD5, 34-463: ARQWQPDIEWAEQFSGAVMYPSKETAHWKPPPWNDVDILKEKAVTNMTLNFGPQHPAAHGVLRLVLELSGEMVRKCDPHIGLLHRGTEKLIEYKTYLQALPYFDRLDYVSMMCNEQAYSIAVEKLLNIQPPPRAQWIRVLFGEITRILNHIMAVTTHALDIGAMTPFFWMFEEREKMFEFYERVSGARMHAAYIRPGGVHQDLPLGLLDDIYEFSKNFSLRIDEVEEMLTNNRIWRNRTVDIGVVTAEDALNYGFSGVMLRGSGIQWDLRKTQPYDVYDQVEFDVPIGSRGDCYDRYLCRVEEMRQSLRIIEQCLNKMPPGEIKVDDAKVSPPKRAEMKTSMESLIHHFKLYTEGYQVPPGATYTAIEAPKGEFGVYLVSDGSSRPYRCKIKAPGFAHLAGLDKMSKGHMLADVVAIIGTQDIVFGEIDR
UniProt Q9DC70, 36-224: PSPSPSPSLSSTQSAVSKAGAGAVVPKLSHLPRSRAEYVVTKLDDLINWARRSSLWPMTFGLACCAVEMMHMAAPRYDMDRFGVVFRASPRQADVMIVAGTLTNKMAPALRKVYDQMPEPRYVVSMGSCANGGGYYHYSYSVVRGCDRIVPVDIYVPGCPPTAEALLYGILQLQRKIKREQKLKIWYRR

Target: M. musculus (heart) complex I (Mus musculus, UniProt P03888+Q91WD5+Q9DC70)
Type: biochemical
Conditions: read-out: M. musculus complex I IC50
Procedure: Six 8–10-week-old C57Bl/6 female mice (Charles River) were freshly dissected, and their livers and hearts collected into separate 1.5 mL microcentrifuge tubes. Organs were flash-frozen in liquid nitrogen and stored at −80 °C prior to use. The heart of a freshly slaughtered adult cow was obtained from a local abattoir (Peel Sausage Inc.), chopped into ~1-inch cubes and collected into 50 mL falcon tubes. Falcon tubes were flash-frozen in a container of dry ice and stored at −80 °C prior to use. Isolation of mitochondria from all mammalian tissue was carried out following the protocol described above. […]
The enzymatic activities of individual ETC complexes (I-IV) were assessed spectrophotometrically in isolated mitochondria using a Varioskan LUX Multimode plate reader (ThermoFisher Scientific). […] The BCA assay (Walker, 1994) was used to quantify the protein concentration of mitochondria suspensions; solutions were diluted to a concentration of 0.2 mg/mL for use in all assays. […] Immediately following the addition of mitochondria, absorbance was measured (complex I and II: 600 nm; complex III and IV: 550 nm) in 30 s intervals over 15 min. Enzymatic activity was determined in each reaction by plotting absorbance versus time and calculating the slope of the curve during the initial linear phase of the reaction. […]

C=C(C)[C@H]1Cc2c(ccc3c2O[C@@H]2COc4cc(OC)c(OC)cc4[C@@H]2C3=O)O1 [Rotenone, reference compound]
IC50: 0.037 µM
